These results are taken from patent publication US12584113B2, “Method of cell culture” (Pfizer Inc., priority 2014, dated 2026).

This test has as its system GS-CHO cells. Put plainly: Spike-in of single purified metabolites into Medium A, growth of GS-CHO cells monitored 5 or 6 days. In kind it is cell-based, Chinese hamster. The conditions noted are these: metabolite alone at concentrations of 1 mM or lower. Here is the method:
GS-CHO cells producing a recombinant antibody were inoculated at low viable cell densities (0.1E6 cells/mL) in various conditions in 5 ml volume, 6-well plate cultures. […] The pH of the Medium A, spiked-in with any one of the nine metabolites or any combination of the nine metabolites, was adjusted to 7 before inoculating the cells (on day 0).
For indolelactate, the stock solution (500 mM) was prepared in DMSO. […] All the conditions were run in duplicates or triplicates. Growth of the cells in above described conditions was monitored for 5 or 6 days.

Consider `O=C(O)C(=O)Cc1ccc(O)cc1` [4-hydroxyphenylpyruvate], for which the “effect on growth of cells” value is “potent negative effect on growth of cells”.
